Source: article PMC10935867
No constants are given. Whether binding was seen depends on the method and setting. In cells and extracts the contact can be indirect. Some entries that bind do so weakly or less than the wild type.

Chains of the proteins cited; added tags and fusions are not shown. Residues count along the entry.
UniProt P05106, residues 27-788: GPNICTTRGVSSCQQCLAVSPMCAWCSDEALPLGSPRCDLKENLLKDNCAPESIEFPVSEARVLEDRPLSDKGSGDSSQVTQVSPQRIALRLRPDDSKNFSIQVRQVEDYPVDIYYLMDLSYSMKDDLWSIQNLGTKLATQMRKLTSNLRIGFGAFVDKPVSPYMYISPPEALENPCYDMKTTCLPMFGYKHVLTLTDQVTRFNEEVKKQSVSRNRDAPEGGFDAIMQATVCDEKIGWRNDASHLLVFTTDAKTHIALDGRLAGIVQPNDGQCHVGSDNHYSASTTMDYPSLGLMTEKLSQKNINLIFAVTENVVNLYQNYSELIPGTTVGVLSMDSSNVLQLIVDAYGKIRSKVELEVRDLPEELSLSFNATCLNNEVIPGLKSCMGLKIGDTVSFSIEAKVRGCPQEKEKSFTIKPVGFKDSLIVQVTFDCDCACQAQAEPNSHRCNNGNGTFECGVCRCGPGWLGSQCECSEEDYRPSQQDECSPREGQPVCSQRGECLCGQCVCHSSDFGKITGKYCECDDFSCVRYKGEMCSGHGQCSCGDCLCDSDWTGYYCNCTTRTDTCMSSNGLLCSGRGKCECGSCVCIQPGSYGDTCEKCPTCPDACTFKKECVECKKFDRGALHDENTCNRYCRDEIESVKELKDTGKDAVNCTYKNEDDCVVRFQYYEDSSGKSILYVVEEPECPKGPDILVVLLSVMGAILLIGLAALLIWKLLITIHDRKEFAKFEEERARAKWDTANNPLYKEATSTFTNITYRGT

Biological target: integrin beta 3 (ITGB3) (human (endogenous in AGS)) (UniProt P05106)
Assay: co-IP; cell lysates (50 mM Tris-HCl pH 7.4, 5 mM EDTA, 1% Triton X-100, 150 mM NaCl, protease inhibitors) incubated with antibody-bound protein A/G agarose beads at 4 °C overnight, washed 5 times with PBS, Western blot; AGS cells with or without DAB2 knockdown, HGC27 cells with or without DAB2 overexpression

binding: binds
B1: Disabled homolog 2 (DAB2) (protein, UniProt P98082 1-770)
chain: MSNEVETSATNGQPDQQAAPKAPSKKEKKKGPEKTDEYLLARFKGDGVKYKAKLIGIDDVPDARGDKMSQDSMMKLKGMAAAGRSQGQHKQRIWVNISLSGIKIIDEKTGVIEHEHPVNKISFIARDVTDNRAFGYVCGGEGQHQFFAIKTGQQAEPLVVDLKDLFQVIYNVKKKEEEKKKIEEASKAVENGSEALMILDDQTNKLKSGVDQMDLFGDMSTPPDLNSPTESKDILLVDLNSEIDTNQNSLRENPFLTNGITSCSLPRPTPQASFLPENAFSANLNFFPTPNPDPFRDDPFTQPDQSTPSSFDSLKSPDQKKENSSSSSTPLSNGPLNGDVDYFGQQFDQISNRTGKQEAQAGPWPFSSSQTQPAVRTQNGVSEREQNGFSVKSSPNPFVGSPPKGLSIQNGVKQDLESSVQSSPHDSIAIIPPPQSTKPGRGRRTAKSSANDLLASDIFAPPVSEPSGQASPTGQPTALQPNPLDLFKTSAPAPVGPLVGLGGVTVTLPQAGPWNTASLVFNQSPSMAPGAMMGGQPSGFSQPVIFGTSPAVSGWNQPSPFAASTPPPVPVVWGPSASVAPNAWSTTSPLGNPFQSNIFPAPAVSTQPPSMHSSLLVTPPQPPPRAGPPKDISSDAFTALDPLGDKEIKDVKEMFKDFQLRQPPAVPARKGEQTSSGTLSAFASYFNSKVGIPQENADHDDFDANQLLNKINEPPKPAPRQVSLPVTKSTDNAFENPFFKDSFGSSQASVASSQPVSSEMYRDPFGNPFA
